Assay results from PubChem BioAssay (EPA / NIEHS).
“And” between values parts separate entries of the source, which are not always exact repeats. Equal values may be shown once. The shares of active, inactive and inconclusive entries below differ from those in the screen. Where the call is inconclusive, the potency comes from a doubtful curve fit. More than one record can exist for a structure, and the calls need not agree. The source made the active and inactive calls. The calls were made as follows: active = hit-call score of the fitted dose curve at least 0.9, where 1 is the maximum; inconclusive = response in the unintended direction; inactive = score below 0.9.

The chains behind the UniProt entries cited, without tags or fusion partners.
UniProt P04637, whole entry, looked up: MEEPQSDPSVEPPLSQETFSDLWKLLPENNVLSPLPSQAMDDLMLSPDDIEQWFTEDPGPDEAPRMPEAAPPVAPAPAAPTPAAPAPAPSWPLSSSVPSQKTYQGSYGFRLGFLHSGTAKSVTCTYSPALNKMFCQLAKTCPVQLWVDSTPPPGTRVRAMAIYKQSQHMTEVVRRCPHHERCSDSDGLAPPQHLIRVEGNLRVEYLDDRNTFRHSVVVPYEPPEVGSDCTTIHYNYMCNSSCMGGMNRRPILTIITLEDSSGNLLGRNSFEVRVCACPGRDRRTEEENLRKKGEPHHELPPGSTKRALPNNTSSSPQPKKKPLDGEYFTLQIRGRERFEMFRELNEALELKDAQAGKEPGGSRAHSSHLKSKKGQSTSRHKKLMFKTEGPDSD

System: not listed separately
Experiment: TOX21_p53_BLA_p5_viability: Viability Assessment in the Tox21 HCT-116 p53 Agonism Beta-lactamase Assay, Phase 5 (AID 2283600)
In short: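 After the 460/530 nm beta-lactamase measurement, the wells received an ATP-detection luciferase reagent; signal was read 30 min later at RT. Compound treatment lasted 16 h on cells pre-incubated 5 h post-seeding.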

SMILES | AC50
CC(C)(O)CCc1ccccc1 | inconclusive: 46.1 µM
CNC(=S)N(C)C | inconclusive: 48.2 µM and inconclusive: 46.4 µM
O=C(C=Cc1ccccc1)OCc1ccccc1 | inconclusive: 23 µM

Molecular target: Cellular tumor antigen p53 (Homo sapiens) (UniProt P04637)
Experiment: TOX21_p53_BLA_p4_ratio: Tox21 HCT-116 p53 Agonism Beta-lactamase Assay, Ratio, Phase 4 (AID 2283601)
In short: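 HCT116 cells carrying an inducible beta-lactamase reporter were plated at 4000 cells/well, rested 5 h, then exposed to compounds in DMSO (217-fold dilution) for 16 h at 37C. CCF4-AM substrate was loaded 2 h at room temperature; 460/530 nm emission ratio scored gain-of-signal versus DMSO.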

SMILES | AC50 | outcome
CCCCCCCCCCCCCCCC[N+](C)(C)CC | active: 70.4 µM | –
CC(C)=CC(=O)O | inconclusive: 46.1 µM | –
CCCCCCOC(=O)CC | inconclusive: 46.1 µM | –
O=C1C=CC(=O)N1c1ccc(Cc2ccc(N3C(=O)C=CC3=O)cc2)cc1 | active: 68 µM | –
O=S(=O)(O)c1ccc2cc(O)c(S(=O)(=O)O)cc2c1 | inconclusive: 46.1 µM | –
Cc1ccc([N+](=O)[O-])cc1S(=O)(=O)O | inconclusive: 45.4 µM | –
CC(=O)OCC(C)OC(C)=O (centres undefined) | – | inactive
CCCCC1CCCCC(=O)O1 (centres undefined) | inconclusive: 83.1 µM | –
CCCSSCCC | inconclusive: 46.1 µM | –
CC(C)(c1ccc(O)cc1)c1ccc(O)cc1 | active: 75.9 µM | –
O=C(c1ccc(OCCN2CCCCC2)cc1)c1c(-c2ccc(O)cc2)sc2cc(O)ccc12 | active: 69.6 µM and active: 69.3 µM and active: 36.5 µM | –
C[C@]12CC[C@@H]3c4ccc(O)cc4C[C@@H](CCCCCCCCCS(=O)CCCC(F)(F)C(F)(F)F)[C@H]3[C@@H]1CC[C@@H]2O (some centres undefined) | inconclusive: 29.6 µM | inactive
CCCOC(=O)CCCCC(=O)OCCC | – | inactive
CCC(C)C(=O)OCCc1ccccc1 (centres undefined) | inconclusive: 46.1 µM | –
CCCCCC=O | inconclusive: 46.1 µM and inconclusive: 47.8 µM | –

Given as labelled records: entries from further up
CCCSSCCC
  AC50: inconclusive: 46.1 µM
CC(C)(c1ccc(O)cc1)c1ccc(O)cc1
  AC50: active: 75.9 µM
